PubChem BioAssay AID504793 | Drosophila RNAi Screening Center, 2011
Assay: 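Genes required for cells to halt at G2/M after double-strand DNA breaks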 (primary screen). Cells: Drosophila S2R+ cells. Reagents: long dsRNA against Drosophila genes, about 0.25 µg dsRNA per well. Duration: 4 days of dsRNA, then 4 hours of drug before read-out. Conditions: doxorubicin 0.5 µM for 4 hours to cause double-strand breaks, in cells also given a low, harmless dose of dsRNA against nbs to sensitise the assay. Measurement: 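Per-well count of mitotic cells stained for phospho-histone H3 after doxorubicin exposure, used as mitotic index; counts are raw and not normalised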. Reading the numbers: mitotic cells: higher = more cells in mitosis, weaker G2 arrest. Call rule: 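Genes are called active only when high mitotic counts were reproduced with independent dsRNAs and mitosis was checked for delay without damage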. Calls: active = confirmed in follow-up tests; inactive = not confirmed.
In all, the deposit lists about 23,000 reagents; this is an unselected part of those that have a named target and a result. Of all reagents, 62 (0.27%) are marked active. 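Calls come from follow-up tests whose scores are not deposited, so confirmed genes may have low counts here; counts are not normalised per plate.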 Raw values are not corrected between plates. A number with no mark means an inactive call. Reagents against one gene are numbered here.

Depletion of CG2712 came out at: mitotic cells, replicate 1 = 5.
Knock-down of Rheb (Ras homolog enriched in brain) came out at: mitotic cells, replicate 1 = 6.
Fen1 (Flap endonuclease 1) showed mitotic cells, replicate 1 = 8.
Pka-C1 (Protein kinase, cAMP-dependent, catalytic subunit 1) #1 showed mitotic cells, replicate 1 = 5.
With knock-down of Pka-C1 (Protein kinase, cAMP-dependent, catalytic subunit 1) #2, the record shows mitotic cells, replicate 1 = 8.
Pka-C1 (Protein kinase, cAMP-dependent, catalytic subunit 1) #3 showed mitotic cells, replicate 1 = 7.
EMC8-9 (ER membrane protein complex subunit 8/9) gave mitotic cells, replicate 1 = 6.
With knock-down of Ccp84Ac #1 the results were mitotic cells, replicate 1 = 5.
Ccp84Ac #2 gave mitotic cells, replicate 1 = 2.
Cbp20 (cap binding protein 20) gave mitotic cells, replicate 1 = 14.
With knock-down of etaTry (etaTrypsin) #1, the record shows mitotic cells, replicate 1 = 2.
Silencing of etaTry (etaTrypsin) #2 came out at: mitotic cells, replicate 1 = 3.
CG7407 showed mitotic cells, replicate 1 = 7.
Against CG9717 the deposit lists mitotic cells, replicate 1 = 4.
Depletion of CG13058 #1 came out at: mitotic cells, replicate 1 = 6.
After knock-down of CG13058 #2, the screen gave mitotic cells, replicate 1 = 10.
For ms(3)76Ba (male sterile (3) 76Ba) the deposit lists mitotic cells, replicate 1 = 7.
CG18598 gave mitotic cells, replicate 1 = 6.
Against CG15345 (retired record) #1, the entry reads mitotic cells, replicate 1 = 16.
CG15345 (retired record) #2 gave mitotic cells, replicate 1 = 8.
For CG5103, the entry reads mitotic cells, replicate 1 = 4.
NitFhit (Nitrilase and fragile histidine triad fusion protein) #1 scored mitotic cells, replicate 1 = 6.
NitFhit (Nitrilase and fragile histidine triad fusion protein) #2 scored mitotic cells, replicate 1 = 5.

Not a retest: entries from further up.
etaTry (etaTrypsin) #1 → mitotic cells, replicate 1 = 2
etaTry (etaTrypsin) #2 → mitotic cells, replicate 1 = 3
